Measurements as given in the supplement of paper PMC11732987, “Enantioselective OTUD7B fragment discovery through chemoproteomics screening and high-throughput optimisation” (Communications Chemistry, 2025).
This is one part of the list. The data scatter; read single values as rough.

Sequences of proteins named here, by UniProt entry; tags and fusion partners are left off. A change or cut given only in a name is not applied to a line headed by its entry. Residues count along the entry.
UniProt Q96KM6: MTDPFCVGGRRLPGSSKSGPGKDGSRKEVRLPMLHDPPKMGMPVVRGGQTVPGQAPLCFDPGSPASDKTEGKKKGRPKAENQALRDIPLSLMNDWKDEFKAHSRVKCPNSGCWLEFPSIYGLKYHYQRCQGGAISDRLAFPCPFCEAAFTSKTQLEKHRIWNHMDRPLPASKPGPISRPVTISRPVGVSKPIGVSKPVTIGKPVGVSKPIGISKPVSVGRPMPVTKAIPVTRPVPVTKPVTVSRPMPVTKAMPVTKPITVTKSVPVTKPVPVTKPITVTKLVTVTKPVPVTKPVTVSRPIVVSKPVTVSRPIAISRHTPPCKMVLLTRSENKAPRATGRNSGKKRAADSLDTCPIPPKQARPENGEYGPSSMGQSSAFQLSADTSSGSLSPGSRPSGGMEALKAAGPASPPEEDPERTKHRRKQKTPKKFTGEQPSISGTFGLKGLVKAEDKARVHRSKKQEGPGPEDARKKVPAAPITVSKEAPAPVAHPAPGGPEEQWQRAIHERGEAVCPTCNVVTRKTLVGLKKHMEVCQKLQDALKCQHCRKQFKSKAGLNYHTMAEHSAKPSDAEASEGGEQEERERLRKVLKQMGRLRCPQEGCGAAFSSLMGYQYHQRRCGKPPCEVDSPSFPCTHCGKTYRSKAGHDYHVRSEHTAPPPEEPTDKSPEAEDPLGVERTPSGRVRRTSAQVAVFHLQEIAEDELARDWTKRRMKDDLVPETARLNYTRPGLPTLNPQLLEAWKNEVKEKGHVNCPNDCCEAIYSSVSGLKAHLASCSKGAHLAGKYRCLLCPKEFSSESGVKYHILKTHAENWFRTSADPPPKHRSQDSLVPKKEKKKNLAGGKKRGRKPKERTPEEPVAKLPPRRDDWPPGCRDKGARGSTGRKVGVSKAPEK
UniProt Q7Z3T8: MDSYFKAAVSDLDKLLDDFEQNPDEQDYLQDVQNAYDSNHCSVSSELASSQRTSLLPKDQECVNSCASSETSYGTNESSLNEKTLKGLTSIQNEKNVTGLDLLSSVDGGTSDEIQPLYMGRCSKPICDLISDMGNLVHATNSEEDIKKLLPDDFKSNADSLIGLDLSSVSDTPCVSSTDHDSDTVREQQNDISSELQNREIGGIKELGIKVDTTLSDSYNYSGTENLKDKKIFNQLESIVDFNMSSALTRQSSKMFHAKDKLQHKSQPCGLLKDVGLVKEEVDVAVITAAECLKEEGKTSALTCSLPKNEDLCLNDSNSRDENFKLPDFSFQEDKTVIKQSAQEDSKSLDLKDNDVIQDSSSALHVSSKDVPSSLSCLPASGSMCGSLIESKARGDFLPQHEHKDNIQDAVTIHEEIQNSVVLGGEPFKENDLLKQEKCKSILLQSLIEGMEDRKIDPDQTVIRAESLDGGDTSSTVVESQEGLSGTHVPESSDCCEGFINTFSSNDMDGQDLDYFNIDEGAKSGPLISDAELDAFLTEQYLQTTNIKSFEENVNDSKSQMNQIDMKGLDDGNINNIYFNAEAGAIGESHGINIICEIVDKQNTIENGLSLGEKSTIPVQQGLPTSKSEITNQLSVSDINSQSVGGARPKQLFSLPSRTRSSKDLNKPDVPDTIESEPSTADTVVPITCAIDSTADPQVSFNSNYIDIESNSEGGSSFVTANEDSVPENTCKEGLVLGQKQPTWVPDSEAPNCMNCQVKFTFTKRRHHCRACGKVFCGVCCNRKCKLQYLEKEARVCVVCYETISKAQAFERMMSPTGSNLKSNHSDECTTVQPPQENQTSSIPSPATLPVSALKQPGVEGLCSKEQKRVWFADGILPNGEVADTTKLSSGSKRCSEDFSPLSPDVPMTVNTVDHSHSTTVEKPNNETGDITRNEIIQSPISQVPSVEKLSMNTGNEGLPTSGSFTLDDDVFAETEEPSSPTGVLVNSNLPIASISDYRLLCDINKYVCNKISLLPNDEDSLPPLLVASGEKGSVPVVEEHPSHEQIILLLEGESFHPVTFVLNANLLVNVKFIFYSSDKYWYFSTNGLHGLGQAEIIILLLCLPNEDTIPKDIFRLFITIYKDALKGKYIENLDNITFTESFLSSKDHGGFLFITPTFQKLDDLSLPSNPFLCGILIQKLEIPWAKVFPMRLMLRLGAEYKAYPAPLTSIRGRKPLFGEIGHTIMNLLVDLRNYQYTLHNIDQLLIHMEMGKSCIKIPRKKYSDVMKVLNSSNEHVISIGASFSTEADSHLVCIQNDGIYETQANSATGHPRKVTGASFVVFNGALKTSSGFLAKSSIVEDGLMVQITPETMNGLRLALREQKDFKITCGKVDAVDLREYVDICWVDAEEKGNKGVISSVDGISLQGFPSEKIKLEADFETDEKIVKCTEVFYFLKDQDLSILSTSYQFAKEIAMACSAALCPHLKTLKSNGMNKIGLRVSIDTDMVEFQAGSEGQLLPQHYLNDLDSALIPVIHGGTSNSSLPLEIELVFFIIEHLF
UniProt Q9HBF4, 210-230: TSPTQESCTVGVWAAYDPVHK
UniProt Q9H609: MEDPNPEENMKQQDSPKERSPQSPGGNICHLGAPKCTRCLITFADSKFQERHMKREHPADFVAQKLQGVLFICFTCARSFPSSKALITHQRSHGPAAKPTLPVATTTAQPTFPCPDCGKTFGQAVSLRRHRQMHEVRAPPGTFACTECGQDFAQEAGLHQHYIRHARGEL
UniProt Q8IWR0: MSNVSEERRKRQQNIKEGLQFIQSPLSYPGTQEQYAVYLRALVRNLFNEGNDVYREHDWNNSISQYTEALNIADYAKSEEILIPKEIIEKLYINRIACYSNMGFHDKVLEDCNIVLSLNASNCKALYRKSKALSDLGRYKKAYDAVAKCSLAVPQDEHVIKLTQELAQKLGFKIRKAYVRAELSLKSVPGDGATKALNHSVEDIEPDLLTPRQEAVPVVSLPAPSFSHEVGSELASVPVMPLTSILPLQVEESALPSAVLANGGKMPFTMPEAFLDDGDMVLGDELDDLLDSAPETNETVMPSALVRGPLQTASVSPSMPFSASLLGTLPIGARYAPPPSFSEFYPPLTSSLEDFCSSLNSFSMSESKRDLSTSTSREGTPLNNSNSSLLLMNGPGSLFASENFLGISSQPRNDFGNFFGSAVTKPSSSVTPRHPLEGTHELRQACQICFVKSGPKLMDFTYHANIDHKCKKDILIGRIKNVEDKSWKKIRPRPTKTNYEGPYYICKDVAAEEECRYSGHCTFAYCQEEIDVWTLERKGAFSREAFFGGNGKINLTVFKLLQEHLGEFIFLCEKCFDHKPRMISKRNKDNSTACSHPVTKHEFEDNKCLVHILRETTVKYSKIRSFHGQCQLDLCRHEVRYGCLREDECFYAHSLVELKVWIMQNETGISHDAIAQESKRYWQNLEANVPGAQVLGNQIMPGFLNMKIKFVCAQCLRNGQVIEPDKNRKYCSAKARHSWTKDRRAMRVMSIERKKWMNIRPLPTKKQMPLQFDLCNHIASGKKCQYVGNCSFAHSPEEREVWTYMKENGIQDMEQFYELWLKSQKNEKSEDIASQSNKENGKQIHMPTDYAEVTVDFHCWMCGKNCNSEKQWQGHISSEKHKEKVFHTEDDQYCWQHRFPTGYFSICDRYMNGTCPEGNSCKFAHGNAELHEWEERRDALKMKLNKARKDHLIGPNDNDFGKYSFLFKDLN
UniProt Q86WB0: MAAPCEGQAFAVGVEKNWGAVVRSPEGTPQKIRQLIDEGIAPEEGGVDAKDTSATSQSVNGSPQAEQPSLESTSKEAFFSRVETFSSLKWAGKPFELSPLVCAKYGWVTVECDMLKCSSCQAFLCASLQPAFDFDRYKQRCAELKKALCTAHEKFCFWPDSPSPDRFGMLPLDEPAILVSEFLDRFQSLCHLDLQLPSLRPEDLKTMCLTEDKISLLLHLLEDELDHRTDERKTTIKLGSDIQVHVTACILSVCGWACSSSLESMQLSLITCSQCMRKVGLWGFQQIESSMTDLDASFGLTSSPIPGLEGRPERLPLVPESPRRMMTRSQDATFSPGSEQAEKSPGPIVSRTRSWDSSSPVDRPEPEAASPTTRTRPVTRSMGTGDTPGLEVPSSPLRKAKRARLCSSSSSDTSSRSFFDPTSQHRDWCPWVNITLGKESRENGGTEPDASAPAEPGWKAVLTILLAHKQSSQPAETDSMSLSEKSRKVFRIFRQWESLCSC
UniProt Q9H6R6: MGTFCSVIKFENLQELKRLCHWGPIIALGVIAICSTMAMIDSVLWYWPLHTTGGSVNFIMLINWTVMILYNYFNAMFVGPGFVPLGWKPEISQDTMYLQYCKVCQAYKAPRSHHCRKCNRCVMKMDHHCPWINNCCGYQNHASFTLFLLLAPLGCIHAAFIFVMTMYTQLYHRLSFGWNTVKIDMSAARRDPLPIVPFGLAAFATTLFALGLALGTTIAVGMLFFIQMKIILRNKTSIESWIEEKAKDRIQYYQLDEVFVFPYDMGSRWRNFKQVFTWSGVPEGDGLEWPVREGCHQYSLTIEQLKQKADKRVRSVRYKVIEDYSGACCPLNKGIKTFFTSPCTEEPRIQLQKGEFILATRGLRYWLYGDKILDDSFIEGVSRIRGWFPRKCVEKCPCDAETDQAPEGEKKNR
UniProt Q9H2Y7: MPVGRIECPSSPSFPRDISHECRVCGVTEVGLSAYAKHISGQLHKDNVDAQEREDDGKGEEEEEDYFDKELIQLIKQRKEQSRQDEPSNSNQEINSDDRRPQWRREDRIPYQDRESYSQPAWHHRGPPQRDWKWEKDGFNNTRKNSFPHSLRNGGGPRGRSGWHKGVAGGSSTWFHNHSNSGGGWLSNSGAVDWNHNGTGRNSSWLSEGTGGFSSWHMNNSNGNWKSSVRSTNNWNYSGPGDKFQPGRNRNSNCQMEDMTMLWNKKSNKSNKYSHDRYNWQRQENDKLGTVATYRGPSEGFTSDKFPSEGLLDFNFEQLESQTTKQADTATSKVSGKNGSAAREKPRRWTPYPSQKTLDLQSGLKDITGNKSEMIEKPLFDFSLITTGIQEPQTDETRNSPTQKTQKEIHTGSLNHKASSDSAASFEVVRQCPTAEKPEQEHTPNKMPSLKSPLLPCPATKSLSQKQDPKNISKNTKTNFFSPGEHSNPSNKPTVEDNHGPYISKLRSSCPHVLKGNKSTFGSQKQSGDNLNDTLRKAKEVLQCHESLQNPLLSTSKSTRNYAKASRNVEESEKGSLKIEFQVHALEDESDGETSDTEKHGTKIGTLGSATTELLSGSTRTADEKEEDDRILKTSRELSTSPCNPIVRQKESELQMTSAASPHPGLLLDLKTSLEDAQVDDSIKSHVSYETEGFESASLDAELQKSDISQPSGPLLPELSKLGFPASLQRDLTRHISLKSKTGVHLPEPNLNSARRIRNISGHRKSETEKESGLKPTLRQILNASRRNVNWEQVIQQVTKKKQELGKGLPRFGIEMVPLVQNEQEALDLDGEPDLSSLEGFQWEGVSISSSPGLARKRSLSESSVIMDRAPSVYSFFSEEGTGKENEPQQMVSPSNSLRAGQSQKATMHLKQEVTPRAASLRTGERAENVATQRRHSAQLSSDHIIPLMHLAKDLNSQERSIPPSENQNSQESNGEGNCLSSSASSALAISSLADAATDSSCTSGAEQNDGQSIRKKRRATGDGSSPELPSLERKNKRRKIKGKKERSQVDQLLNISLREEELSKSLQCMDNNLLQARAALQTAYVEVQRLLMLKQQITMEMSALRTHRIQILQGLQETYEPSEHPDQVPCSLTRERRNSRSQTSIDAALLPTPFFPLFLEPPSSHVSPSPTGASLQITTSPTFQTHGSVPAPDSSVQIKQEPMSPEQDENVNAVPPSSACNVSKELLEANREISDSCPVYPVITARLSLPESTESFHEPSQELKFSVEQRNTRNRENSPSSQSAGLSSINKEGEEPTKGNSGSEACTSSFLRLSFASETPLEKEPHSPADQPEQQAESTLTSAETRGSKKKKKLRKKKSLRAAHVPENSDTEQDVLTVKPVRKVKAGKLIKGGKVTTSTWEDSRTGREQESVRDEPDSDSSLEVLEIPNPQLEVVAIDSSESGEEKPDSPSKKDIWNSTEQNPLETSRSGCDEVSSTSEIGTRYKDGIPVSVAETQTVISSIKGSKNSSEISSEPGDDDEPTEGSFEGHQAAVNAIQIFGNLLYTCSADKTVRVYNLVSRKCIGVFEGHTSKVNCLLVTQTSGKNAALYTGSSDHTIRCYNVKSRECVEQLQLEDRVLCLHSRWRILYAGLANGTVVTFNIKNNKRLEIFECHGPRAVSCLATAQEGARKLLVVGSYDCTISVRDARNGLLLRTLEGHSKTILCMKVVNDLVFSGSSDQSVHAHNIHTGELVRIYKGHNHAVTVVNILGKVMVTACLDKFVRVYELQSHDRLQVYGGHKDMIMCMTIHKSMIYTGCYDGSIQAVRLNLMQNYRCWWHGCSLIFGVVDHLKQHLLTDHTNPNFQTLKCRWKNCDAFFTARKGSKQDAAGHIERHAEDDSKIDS

Key:
[1] = compound: ClCC(=O)N[C@@H]1CCCc2ccccc12; test: log2 mean competition ratio of IA-DTB cysteine labelling (DMSO/compound) (log2 ratio); higher = stronger cysteine engagement by compound; conditions: treatment time: 4 h, cell line lysate: HEK293T
Method: (§1)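 IA-DTB competitive cysteine chemoproteomics in HEK293T RIPA lysate. Lysates were treated with compound 29 or 30 at 50 or 200 µM for 4 h, then IA-DTB (500 µM, 1 h), trypsin-digested, NeutrAvidin-enriched and analysed by diaPASEF. Competition ratio = intensity DMSO / intensity compound (n=4 treated, n=64 DMSO); binding: mean log2 CR ≥ 1 and p ≤ 0.05 plus QC filters. Target is the cysteine site.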

[2] = compound: ClCC(=O)N[C@H]1CCCc2ccccc12; test: as above; conditions: treatment time: 4 h, cell line lysate: HEK293T
Method: as §1

Row | Target | log2 mean competition ratio ([1]; 50 µM) | log2 mean competition ratio ([1]; 200 µM) | log2 mean competition ratio ([2]; 50 µM) | log2 mean competition ratio ([2]; 200 µM)
1 | ZZZ3 C268 (UniProt Q8IYH5) | -0.0491 | -0.0806 |  | 
2 | ZNF428 C111 | -0.103 | -0.0217 |  | 
3 | ZCCHC3 C348 (UniProt Q9NUD5) | 0.151 | -0.161 |  | 
4 | ZMYM2 C1268 (UniProt Q9UBW7) | 0.0601 | 0.489 |  | 
5 | ZC3H8 C46 (UniProt Q8N5P1) | 0.0147 | 0.404 |  | 
6 | ZMYM3 C1197 (UniProt Q14202) | -0.213 | 0.335 |  | 
7 | ZC3HAV1 C645 (UniProt Q7Z2W4) | -0.327 | 0.183 |  | 
8 | ZNF462 C2287 | 0.302 | -0.000908 |  | 
9 | ZNF264 C84 | -0.299 | 0.211 |  | 
10 | ZNF616 C174 | 0.0592 | 0.405 |  | 
11 | ZMYM1 C438 (UniProt Q5SVZ6) | 0.127 | 0.0437 |  | 
12 | ZNF609 C1120 (UniProt O15014) | -0.333 | 0.0416 |  | 
13 | ZNF512B C774 (UniProt Q96KM6) | 0.172 | -0.151 |  | 
14 | ZFYVE16 C313 (UniProt Q7Z3T8) | -0.266 | -0.192 |  | 
15 | ZFYVE1 C217 (UniProt Q9HBF4) | -0.333 | -0.109 |  | 
16 | ZC3HAV1_(C513,C513,C518,C518) (UniProt Q7Z2W4) | -0.0366 | -0.22 | -0.289 | -0.227
17 | ZMYM3 C1048 (UniProt Q14202) | 0.00215 | 0.0269 | 0.801 | 0.311
18 | ZNF576 C29 (UniProt Q9H609) | 0.28 | 0.23 | 0.00787 | 0.19
19 | ZC3H7A C98 (UniProt Q8IWR0) | 0.685 | 0.44 | 0.331 | 0.329
20 | ZDBF2 C162 | -0.0141 | 0.0634 | 0.143 | 0.126
21 | ZCCHC17 C146 (UniProt Q9NP64) | 0.16 | 0.315 | 0.201 | 0.174
22 | ZC3HC1 C5 (UniProt Q86WB0) | -0.215 | -0.192 | -0.162 | -0.0646
23 | ZZEF1 C2084 (UniProt O43149) | -0.0594 | 0.203 | 0.13 | 0.0648
24 | ZYX C384 (UniProt Q15942) | -0.205 | 0.381 | 0.378 | 0.452
25 | ZSCAN26 C169 (UniProt Q16670) | 0.14 | 0.15 | 0.194 | -0.21

Row | Target | log2 mean competition ratio ([1]; 50 µM) | log2 mean competition ratio ([1]; 200 µM) | log2 mean competition ratio ([2]; 50 µM) | log2 mean competition ratio ([2]; 200 µM)
26 | ZDBF2 C1937 | -0.0486 | -0.113 | 0.24 | 0.0937
27 | ZMYM2 C823 (UniProt Q9UBW7) | 0.0791 | -0.029 | -0.232 | -0.0314
28 | ZZZ3 C24 (UniProt Q8IYH5) | 0.284 | -0.0695 | -0.000435 | 0.116
29 | ZNF276 C136 | 0.113 | 0.118 | -0.129 | 0.204
30 | ZDHHC6 C343 (UniProt Q9H6R6) | 0.0478 | -0.201 | 0.0317 | -0.113
31 | ZNHIT2 C41 (UniProt Q9UHR6) | 0.0103 | 0.405 | 0.159 | 0.0351
32 | ZNF106 C643 (UniProt Q9H2Y7) | -0.158 | -0.0661 | 0.334 | 0.00297
33 | ZC3HAV1L C7 (UniProt Q96H79) | -0.197 | -0.298 | 0.0134 | 0.056
34 | ZNF292 C215 (UniProt O60281) | -0.19 | 0.0716 | -0.558 | -0.171
35 | ZNF616 C163 | -0.0501 | 0.0233 | -0.458 | 0.0618
36 | ZMYM1 C10 (UniProt Q5SVZ6) | 0.102 | 0.459 | -0.23 | 0.129
37 | ZNF805 C168 | -0.531 | 0.162 | -0.31 | 0.21
38 | ZNF805 C185 | -0.066 | -0.509 | -0.228 | -0.00431
39 | ZDBF2 C1575 | -0.0506 | -0.113 | -0.0959 | -0.0389
40 | ZNFX1 C738 (UniProt Q9P2E3) | -0.181 | 0.176 | -0.27 | 0.065
41 | ZNF654 C732, A0A1B0GWA0 | 0.0781 | -0.191 | -0.0801 | 0.0506
42 | ZUP1 C230 (UniProt Q96AP4) | -0.0259 | -0.0588 | -0.362 | -0.0955
43 | ZCCHC2 C305 | 0.0567 | 0.209 | 0.495 | -0.162
44 | ZNF217 C641 (UniProt O75362) | -0.0595 | 0.17 | -0.118 | 0.0716
45 | ZKSCAN8 C289 (UniProt Q15776) | 0.00234 | 0.131 | -0.147 | 0.0398
46 | ZMYND8 C138 (UniProt Q9ULU4) | -0.0479 | -0.0151 | -0.299 | -0.255
47 | ZNF277 C21 (UniProt Q9NRM2) | -0.0246 | 0.196 | -0.0964 | 0.353
48 | ZNF280B C5 (UniProt Q86YH2) | -0.302 | 0.109 | -0.341 | -0.175
49 | ZNF620 C87 | 0.187 | 0.148 | 0.0337 | -0.108
50 | ZNF217 C341 (UniProt O75362) | -0.0646 | -0.124 | -0.0204 | 0.326

Rewritten in markdown: part of the list above.

| Row | Target | log2 mean competition ratio ([1]; 50 µM) | log2 mean competition ratio ([1]; 200 µM) | log2 mean competition ratio ([2]; 50 µM) | log2 mean competition ratio ([2]; 200 µM) |
| --- | --- | --- | --- | --- | --- |
| 37 | ZNF805 C168 | -0.531 | 0.162 | -0.31 | 0.21 |
| 38 | ZNF805 C185 | -0.066 | -0.509 | -0.228 | -0.00431 |
